Measurements reported in PubChem BioAssay AID652243 (Drosophila RNAi Screening Center, 2013)
The deposit covers about 24,000 reagents; below is an unselected part of those with a known target gene and a result. In the full data, 246 (1%) got an active call. 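Plates not normalised; calls are printed but the firefly/Renilla ratio behind them is not deposited; fold cut for lowering reported inconsistently.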 The raw values are shown without normalisation. Reagents against one gene are numbered here. Not stated in the record: the amount of reagent.

Screen: 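Fly genes required for human androgen receptor driven transcription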 (primary screen)
Cells: Drosophila S2R+ cells
Knock-down reagent: long dsRNA against Drosophila genes
Duration: 72 h (48 h, then 24 h hormone)
Challenge: synthetic androgen R1881 at 10 nM for 24 h
Read-out: 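Per-well raw luminescence of the androgen-driven firefly reporter and of the Renilla control, two replicates each, without normalisation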
Direction: firefly reporter light: higher = more light from androgen-responsive reporter; Renilla control light: higher = more constitutive control signal (cell number, transfection)
Call rule: 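Hit when the log firefly-to-Renilla ratio dropped or increased by a fixed fold versus the mean of GFP or LacZ controls across duplicate plates; lowering cut given as 1.5 and as 3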
Calls: active = hit: reporter lowered or raised; inactive = no hit

After knock-down of CG14722 #1 the results were firefly reporter light, replicate 1 = 22744; firefly reporter light, replicate 2 = 44179; Renilla control light, replicate 1 = 2.79e5; Renilla control light, replicate 2 = 4.29e5; inactive.
Depletion of CG14722 #2 gave: firefly reporter light, replicate 1 = 1.43e6; firefly reporter light, replicate 2 = 1.67e6; Renilla control light, replicate 1 = 1.13e6; Renilla control light, replicate 2 = 1.24e6; inactive.
Against CG14722 #3 the deposit lists firefly reporter light, replicate 1 = 1.32e6; firefly reporter light, replicate 2 = 6.78e5; Renilla control light, replicate 1 = 2.51e6; Renilla control light, replicate 2 = 1.48e6; inactive.
Depletion of Corin #1 resulted in: firefly reporter light, replicate 1 = 5.51e5; firefly reporter light, replicate 2 = 1.02e6; Renilla control light, replicate 1 = 1.10e6; Renilla control light, replicate 2 = 2.42e6; inactive.
Silencing of Corin #2 came out at: firefly reporter light, replicate 1 = 3.94e5; firefly reporter light, replicate 2 = 5.76e5; Renilla control light, replicate 1 = 1.15e6; Renilla control light, replicate 2 = 1.20e6; inactive.
After knock-down of nudE #1, the screen gave firefly reporter light, replicate 1 = 1.80e5; firefly reporter light, replicate 2 = 1.85e5; Renilla control light, replicate 1 = 6.20e5; Renilla control light, replicate 2 = 6.79e5; inactive.
Depletion of nudE #2 came out at: firefly reporter light, replicate 1 = 1.68e5; firefly reporter light, replicate 2 = 84832; Renilla control light, replicate 1 = 2.02e6; Renilla control light, replicate 2 = 1.20e6; inactive.
Silencing of nudE #3 came out at: firefly reporter light, replicate 1 = 8.16e5; firefly reporter light, replicate 2 = 8.01e5; Renilla control light, replicate 1 = 1.42e6; Renilla control light, replicate 2 = 1.15e6; inactive.
Him (Holes in muscle) showed firefly reporter light, replicate 1 = 4.76e5; firefly reporter light, replicate 2 = 6.01e5; Renilla control light, replicate 1 = 4.19e6; Renilla control light, replicate 2 = 4.12e6; inactive.
Against lark #1 the deposit lists firefly reporter light, replicate 1 = 7.67e5; firefly reporter light, replicate 2 = 6.44e5; Renilla control light, replicate 1 = 1.43e6; Renilla control light, replicate 2 = 1.14e6; inactive.
Knock-down of lark #2 came out at: firefly reporter light, replicate 1 = 4.29e5; firefly reporter light, replicate 2 = 2.76e5; Renilla control light, replicate 1 = 3.98e5; Renilla control light, replicate 2 = 4.21e5; inactive.
After knock-down of br (broad) #1 the results were firefly reporter light, replicate 1 = 2.38e5; firefly reporter light, replicate 2 = 3.17e5; Renilla control light, replicate 1 = 5.78e5; Renilla control light, replicate 2 = 3.67e5; inactive.
With knock-down of br (broad) #2, the record shows firefly reporter light, replicate 1 = 3.74e5; firefly reporter light, replicate 2 = 3.57e5; Renilla control light, replicate 1 = 4.85e6; Renilla control light, replicate 2 = 3.89e6; inactive.
br (broad) #3 gave firefly reporter light, replicate 1 = 4.00e5; firefly reporter light, replicate 2 = 3.21e5; Renilla control light, replicate 1 = 7.95e5; Renilla control light, replicate 2 = 5.44e5; inactive.
VhaM9.7-d (Vacuolar H[+] ATPase M9.7 subunit d) scored firefly reporter light, replicate 1 = 2.24e5; firefly reporter light, replicate 2 = 2.11e5; Renilla control light, replicate 1 = 2.00e6; Renilla control light, replicate 2 = 2.00e6; inactive.
With knock-down of CG17816 #1 the results were firefly reporter light, replicate 1 = 3.32e5; firefly reporter light, replicate 2 = 4.11e5; Renilla control light, replicate 1 = 1.87e6; Renilla control light, replicate 2 = 2.30e6; inactive.
Against CG17816 #2 the deposit lists firefly reporter light, replicate 1 = 6.09e5; firefly reporter light, replicate 2 = 5.55e5; Renilla control light, replicate 1 = 1.54e6; Renilla control light, replicate 2 = 1.17e6; inactive.
Ir94b (Ionotropic receptor 94b) gave firefly reporter light, replicate 1 = 8.53e5; firefly reporter light, replicate 2 = 9.53e5; Renilla control light, replicate 1 = 1.59e6; Renilla control light, replicate 2 = 1.40e6; inactive.
For CG6885 the deposit lists firefly reporter light, replicate 1 = 1.14e5; firefly reporter light, replicate 2 = 1.04e5; Renilla control light, replicate 1 = 1.20e6; Renilla control light, replicate 2 = 1.27e6; inactive.
With knock-down of Tsp3A (Tetraspanin 3A) #1, the record shows firefly reporter light, replicate 1 = 2.78e5; firefly reporter light, replicate 2 = 1.67e5; Renilla control light, replicate 1 = 3.81e6; Renilla control light, replicate 2 = 2.64e6; inactive.
Against Tsp3A (Tetraspanin 3A) #2, the entry reads firefly reporter light, replicate 1 = 3.42e5; firefly reporter light, replicate 2 = 2.85e5; Renilla control light, replicate 1 = 1.16e6; Renilla control light, replicate 2 = 8.77e5; inactive.
After knock-down of CG7430, the record shows firefly reporter light, replicate 1 = 21056; firefly reporter light, replicate 2 = 18212; Renilla control light, replicate 1 = 2.97e5; Renilla control light, replicate 2 = 2.93e5; inactive.
teq (Tequila) #1 scored firefly reporter light, replicate 1 = 2.46e5; firefly reporter light, replicate 2 = 2.42e5; Renilla control light, replicate 1 = 2.55e6; Renilla control light, replicate 2 = 2.38e6; inactive.
After knock-down of teq (Tequila) #2 the results were firefly reporter light, replicate 1 = 2.88e5; firefly reporter light, replicate 2 = 1.08e5; Renilla control light, replicate 1 = 2.59e6; Renilla control light, replicate 2 = 1.18e6; inactive.
Knock-down of teq (Tequila) #3 resulted in: firefly reporter light, replicate 1 = 4.91e5; firefly reporter light, replicate 2 = 5.11e5; Renilla control light, replicate 1 = 3.40e6; Renilla control light, replicate 2 = 3.05e6; inactive.
CNT1 (Concentrative nucleoside transporter 1) #1 gave firefly reporter light, replicate 1 = 3.38e5; firefly reporter light, replicate 2 = 1.96e5; Renilla control light, replicate 1 = 1.75e6; Renilla control light, replicate 2 = 1.33e6; inactive.
CNT1 (Concentrative nucleoside transporter 1) #2 gave firefly reporter light, replicate 1 = 3.96e5; firefly reporter light, replicate 2 = 3.09e5; Renilla control light, replicate 1 = 7.31e5; Renilla control light, replicate 2 = 7.31e5; inactive.
